Consider one substance from PMC11626200.

Sequences of proteins named here, by UniProt entry; tags and fusion partners are left off.
UniProt P08247: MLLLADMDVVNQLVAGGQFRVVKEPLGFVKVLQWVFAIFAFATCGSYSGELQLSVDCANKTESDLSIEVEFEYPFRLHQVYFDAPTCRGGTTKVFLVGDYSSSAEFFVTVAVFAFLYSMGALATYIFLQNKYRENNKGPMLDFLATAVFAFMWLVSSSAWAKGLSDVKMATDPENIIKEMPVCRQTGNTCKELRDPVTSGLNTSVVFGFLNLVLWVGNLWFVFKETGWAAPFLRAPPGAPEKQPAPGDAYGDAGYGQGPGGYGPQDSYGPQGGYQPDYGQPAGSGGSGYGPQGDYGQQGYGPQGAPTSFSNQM
UniProt P63027: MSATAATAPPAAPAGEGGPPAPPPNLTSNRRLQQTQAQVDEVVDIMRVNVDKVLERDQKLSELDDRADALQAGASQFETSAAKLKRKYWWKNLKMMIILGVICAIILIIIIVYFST

This test has as its target human synaptophysin (Syp) (human) (UniProt P08247). Briefly: FRET or BRET; LuTHy luminescence-based two-hybrid assay: BRET between tagged fusion proteins expressed in mammalian cells; control-corrected BRET (cBRET) ratio, cutoff >=0.03 for membrane proteins. Background: In BRET a luciferase serves as donor, and the signal depends on an acceptor being close.

Results are given in words; binding and its absence hold for the method and conditions named. In cells and extracts the contact can be indirect. Some binding calls cover weakened binding; strength is not graded here.

Turning to “vesicle-associated membrane protein 2 (VAMP2) (from UniProt P63027 1-116)”, the binding result is “binds”.
